The target of this assay is T1, human interleukin 13 receptor alpha 2 (IL-13Rα2), biotinylated (human) (UniProt Q14627).
T1 sequence (biotinylated (site not stated), looked up): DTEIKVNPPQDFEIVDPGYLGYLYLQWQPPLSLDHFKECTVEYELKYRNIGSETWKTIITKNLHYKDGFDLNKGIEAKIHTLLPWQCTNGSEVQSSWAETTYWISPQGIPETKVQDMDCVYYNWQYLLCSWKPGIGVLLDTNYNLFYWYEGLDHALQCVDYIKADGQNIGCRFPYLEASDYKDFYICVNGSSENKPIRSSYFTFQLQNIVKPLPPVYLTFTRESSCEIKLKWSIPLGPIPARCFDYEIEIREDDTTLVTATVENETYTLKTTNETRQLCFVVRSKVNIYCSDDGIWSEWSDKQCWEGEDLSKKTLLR
The experiment in a line: told in words; SPR on captured biotinylated receptor (FIG. 2).

Results are given in words; binding and its absence hold for the method and conditions named. Some entries that bind do so weakly or less than the wild type.

B1: IL-13 variant C11 (IL-13Rα2-selective IL-13 superkine; L10H, R86T, D87G, T88R, R108K) (ligand)
chain: PGPVPPSTAHRELIEELVNITQNQKAPLCNGSMVWSINLTAGMYCAALESLINVSGCSAIEKTQRMLSGFCPHKVSAGQFSSLHVTGRKIEVAQFVKDLLLHLKKLFKEGQFNHHHHHH
notes: the first is used here; Made in insect Hi5 cells; also called polypeptide C11
As to B1, the binding entry is recorded as “binds”.

The values above are taken from patent US20210214410A1 (Stanford University, published 2021).
